Values from PubChem BioAssay AID1508597 (Cure First, 2020)

Aim: 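Survival screen with siRNA in ovarian cancer cells derived from patients, with or without rucaparib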 (primary screen)
System: human ovarian carcinoma lines grown from tumours: OCI-P5x (papillary serous) and OCI-C5x (clear cell)
Reagent: siRNA pool against human genes, 1.25 pmol siRNA per well
Duration: 72 h or 96 h, depending on the cell culture
Conditions: rucaparib 20 µM (about IC30) or vehicle, present until read-out
Rucaparib or vehicle: Rucaparib
Cell line: OCI-C5x (clear cell)
Measurement: 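ATP luminescence measured at 72 or 96 h according to the culture, then normalised and expressed as percent viability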
Direction: viability, normalised: higher = more viable cells remaining
Hit rule: 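a well counts as a hit if its normalised viability is under 80 percent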
Meaning of the calls: active = viability under 80%; inactive = viability 80% or more
This is an unselected part of the about 2,100 reagents, in one setting of the screen. 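Calls flag viability under 80% in either arm, not effects specific to rucaparib; the reference for percent is not stated.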 No sequences are given here. Not given: the 100% reference.

| target | technical replicate | viability, normalised (%) | Call |
| --- | --- | --- | --- |
| RIOX2 (ribosomal oxygenase 2) | 1 | 37 | active |
| RIOX2 (ribosomal oxygenase 2) | 2 | 34.7 | active |
| RIOX2 (ribosomal oxygenase 2) | 3 | 46.2 | active |
| ZDHHC15 (zDHHC palmitoyltransferase 15) | 1 | 48.3 | active |
| ZDHHC15 (zDHHC palmitoyltransferase 15) | 2 | 73.2 | active |
| ZDHHC15 (zDHHC palmitoyltransferase 15) | 3 | 55 | active |
| RAD51AP1 (RAD51 associated protein 1) | 1 | 80.6 | inactive |
| RAD51AP1 (RAD51 associated protein 1) | 2 | 62.1 | active |
| RAD51AP1 (RAD51 associated protein 1) | 3 | 62.4 | active |
| CLDN14 (claudin 14) | 1 | 53.8 | active |
| CLDN14 (claudin 14) | 2 | 37.7 | active |
| CLDN14 (claudin 14) | 3 | 37.3 | active |
| USP21 (ubiquitin specific peptidase 21) | 1 | 84 | inactive |
| USP21 (ubiquitin specific peptidase 21) | 2 | 74.5 | active |
| USP21 (ubiquitin specific peptidase 21) | 3 | 52.2 | active |
| TAF10 (TATA-box binding protein associated factor 10) | 1 | 60.3 | active |
| TAF10 (TATA-box binding protein associated factor 10) | 2 | 60.5 | active |
| TAF10 (TATA-box binding protein associated factor 10) | 3 | 48.3 | active |
| MARK3 (microtubule affinity regulating kinase 3) | 1 | 49.8 | active |
| MARK3 (microtubule affinity regulating kinase 3) | 2 | 69 | active |
| MARK3 (microtubule affinity regulating kinase 3) | 3 | 51.1 | active |
| MORC2 (MORC family CW-type zinc finger 2) | 1 | 38.1 | active |
| MORC2 (MORC family CW-type zinc finger 2) | 2 | 28.7 | active |
| MORC2 (MORC family CW-type zinc finger 2) | 3 | 36.8 | active |

A stretch from the list above, as a working copy:
| target | technical replicate | viability, normalised (%) | Call |
| --- | --- | --- | --- |
| MORC2 (MORC family CW-type zinc finger 2) | 2 | 28.7 | active |
| MORC2 (MORC family CW-type zinc finger 2) | 3 | 36.8 | active |
